Mtb glucose medium: 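Growth of Mycobacterium tuberculosis over 3 days (7H9 medium with glucose and tyloxapol); the read-out is not stated. Tested at 500 µM. Higher reads as more growth inhibition (inferred: compounds with an IC50 in retests scored well above the rest). Of about 18,000 compounds tested this way, about 1,400 (7.9%) reached 50% or more in at least one test.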
Mtb cholesterol medium: 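Growth of Mycobacterium tuberculosis over 4 days (cholesterol / DPPC medium with tyloxapol); the read-out is not stated. Tested at 500 µM. The record gives no direction; compounds that gave an IC50 in retests scored well above the rest, so higher reads as more growth inhibition. Size under these conditions: about 18,000 compounds, about 900 of them at 50% or above in at least one test.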

Results are given as percent effect.
How 0% and 100% were set is not recorded. Most values in the screen are low, and negative values occur.
The compounds are a random part of those screened.

SMILES: COCCSCC(=O)Nc1ccn(C)n1
Mtb glucose medium: 12.29
Mtb cholesterol medium: -4.326

SMILES: CNc1nnc(SCC(=O)N2CCCCCC2)s1
Mtb glucose medium: 31.41
Mtb cholesterol medium: 12.89

SMILES: Cc1ccc(NC(=O)Cn2ccnc2S(C)(=O)=O)cc1
Mtb glucose medium: 30.02
Mtb cholesterol medium: 12.69

SMILES: OCCCn1nnc(-c2ccccc2)n1
Mtb glucose medium: 66.21
Mtb cholesterol medium: 57.87

SMILES: CC(Sc1nnc(NCc2ccc(F)cc2)s1)C(N)=O (stereo unspecified)
Mtb glucose medium: 3.869
Mtb cholesterol medium: -1.51

SMILES: COCC1CCN(C(=O)Nc2ccc(F)c(OC)c2)C1 (stereo unspecified)
Mtb glucose medium: 25.69
Mtb cholesterol medium: 16.56

SMILES: CC(N)(C1CC1)C(F)(F)F (stereo unspecified)
Mtb glucose medium: -8.214
Mtb cholesterol medium: -17.33

SMILES: CC(C(=O)Nc1ccc(C#N)cc1)N1CCOCC1 (stereo unspecified)
Mtb glucose medium: 39.18
Mtb cholesterol medium: 28.71

SMILES: O=C(Nc1c[nH]c(=O)[nH]c1=O)c1ccc(Br)o1
Mtb glucose medium: 8.801
Mtb cholesterol medium: 6.423

SMILES: CCS(=O)(=O)N1CCCC(c2ncc[nH]2)C1 (stereo unspecified)
Mtb glucose medium: 3.37
Mtb cholesterol medium: -6.376

SMILES: O=C(NC1CCS(=O)(=O)c2ccccc21)C1CCC1 (stereo unspecified)
Mtb glucose medium: 1.585
Mtb cholesterol medium: 2.612

SMILES: c1ccc2[nH]c(N3CCCNCC3)nc2c1
Mtb glucose medium: 0.15
Mtb cholesterol medium: -2.108

SMILES: CCCC(N)C(=O)N1CCC(N2CCCCC2=O)CC1 (stereo unspecified)
Mtb glucose medium: 0.3791
Mtb cholesterol medium: 0.9236

SMILES: CC(C)CC(O)C1CCN(Cc2c[nH]cn2)CC1 (stereo unspecified)
Mtb glucose medium: 18.35
Mtb cholesterol medium: 11.31

SMILES: CCc1nc(C)sc1C(=O)N[C@@H]1CCNC[C@H]1O
Mtb glucose medium: 5.968
Mtb cholesterol medium: -4.778

SMILES: CCCn1ccnc1CNC(=O)c1ccc(F)c(O)c1
Mtb glucose medium: 10.83
Mtb cholesterol medium: 1.991

SMILES: O=C(CN1CCS(=O)(=O)CC1)N1CCc2sccc2C1
Mtb glucose medium: 8.931
Mtb cholesterol medium: -0.007194

SMILES: COc1ccnc(N2CCC(F)(CO)C2)n1 (stereo unspecified)
Mtb glucose medium: 22.48
Mtb cholesterol medium: 11.92

SMILES: CC(C)(C)OC(=O)NCC1CCC(=O)N1 (stereo unspecified)
Mtb glucose medium: 10.44
Mtb cholesterol medium: 14.92

SMILES: CSCCC(=O)NCc1cccc(CN2CCCC2)c1
Mtb glucose medium: 32.65
Mtb cholesterol medium: 7.607

SMILES: O=C(COc1ccc(F)cc1)Nc1ccon1
Mtb glucose medium: 65.69
Mtb cholesterol medium: 96.62

SMILES: Cc1cncc(C(=O)N2CCCC2C(C)(C)O)c1 (stereo unspecified)
Mtb glucose medium: -17.82
Mtb cholesterol medium: -36.31

SMILES: CN1CCC(NC(=O)NCc2ccc(Br)cc2F)C1=O (stereo unspecified)
Mtb glucose medium: 26.1
Mtb cholesterol medium: 7.82

SMILES: CN(C)c1cccc(CN)n1
Mtb glucose medium: 4.088
Mtb cholesterol medium: -10.1

The last 2 entries again:

With CN1CCC(NC(=O)NCc2ccc(Br)cc2F)C1=O (stereo unspecified) the screen gave Mtb glucose medium: 26.1%; Mtb cholesterol medium: 7.82%.
With CN(C)c1cccc(CN)n1 the screen gave Mtb glucose medium: 4.088%; Mtb cholesterol medium: -10.1%.

Data taken from ChEMBL document CHEMBL3988442, “University of Dundee, Small-Polar-MMV Screening Library” (2021).